Some of the results follow. Many values rest on one well or one pass, so single values are uncertain.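 Imaging used 1,536-well plates; nuclei positive for cleaved PARP by antibody were divided by total DNA-stained nuclei to yield the apoptosis fraction. Doses for screening kept most cells viable, and cell lines differ markedly in resting and induced cleaved-PARP levels.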
Columns and labels:
Test in all cases: cleaved PARP positive nuclei fraction relative to DMSO control; melanoma cells; higher = more apoptosis
Conditions in all cases: library dose: low library concentration; 72 h
501Mel = tested on: 501Mel
A101D = tested on: A101D
A2058 = tested on: A2058
A375 = tested on: A375
C32 = tested on: C32
CBRC008 = tested on: CBRC008 (line from a melanoma biopsy)
CBRC014 = tested on: CBRC014 (line from a melanoma biopsy)
CBRC016 = tested on: CBRC016 (line from a melanoma biopsy)
CBRC017 = tested on: CBRC017 (line from a melanoma biopsy)
CBRC034 = tested on: CBRC034 (line from a melanoma biopsy)
COLO792 = tested on: COLO792
COLO800 = tested on: COLO800
COLO829 = tested on: COLO829
G361 = tested on: G361
IPC-298 = tested on: IPC-298
IST-MEL1 = tested on: IST-MEL1
LB2518-MEL = tested on: LB2518-MEL
LOXIMVI = tested on: LOXIMVI
MEL-HO = tested on: MEL-HO

SMILES | cleaved PARP positive nuclei fraction (501Mel) [%] | cleaved PARP positive nuclei fraction (A101D) [%] | cleaved PARP positive nuclei fraction (A2058) [%] | cleaved PARP positive nuclei fraction (A375) [%] | cleaved PARP positive nuclei fraction (C32) [%] | cleaved PARP positive nuclei fraction (CBRC008) [%] | cleaved PARP positive nuclei fraction (CBRC014) [%] | cleaved PARP positive nuclei fraction (CBRC016) [%] | cleaved PARP positive nuclei fraction (CBRC017) [%] | cleaved PARP positive nuclei fraction (CBRC034) [%] | cleaved PARP positive nuclei fraction (COLO792) [%] | cleaved PARP positive nuclei fraction (COLO800) [%] | cleaved PARP positive nuclei fraction (COLO829) [%] | cleaved PARP positive nuclei fraction (G361) [%] | cleaved PARP positive nuclei fraction (IPC-298) [%] | cleaved PARP positive nuclei fraction (IST-MEL1) [%] | cleaved PARP positive nuclei fraction (LB2518-MEL) [%] | cleaved PARP positive nuclei fraction (LOXIMVI) [%] | cleaved PARP positive nuclei fraction (MEL-HO) [%]
Nc1ccn([C@@H]2O[C@H](CO)[C@@H](O)C2(F)F)c(=O)n1 [gemcitabine] + C=CCNC1=C2C[C@@H](C)C[C@H](OC)[C@H](O)[C@@H](C)/C=C(\C)[C@H](OC(N)=O)[C@@H](OC)/C=C\C=C(/C)C(=O)NC(=CC1=O)C2=O [Tanespimycin] (first compound 0.0004 µM, partner dose 0.002 µM) | 74.2 | 105 | 126 | 56.3 | 89.1 | 190 | 302 | 216 | 137 | 90.5 | 123 | 102 | 121 | 58.3 | 55.5 | 180 | 117 | 419 | 127
O=C(O)c1ccc2c(c1)nc(Nc1cccc(Cl)c1)c1ccncc12 + Nc1cccc2c1CN(C1CCC(=O)NC1=O)C2=O [lenalidomide] (first compound 0.4 µM, partner dose 1 µM) | 68.9 | 47.6 | 97.6 | 220 | 81.4 | 251 | 143 | 163 | 167 | 72.6 | 168 | 95.1 | 83 | 138 | 60.1 | 59.2 | 163 | 77.2 | 98.7
O=C(O)c1ccc2c(c1)nc(Nc1cccc(Cl)c1)c1ccncc12 + Nc1ncn([C@H]2C[C@H](O)[C@@H](CO)O2)c(=O)n1 [decitabine] (first compound 0.4 µM, partner dose 0.1 µM) | 111 | 151 | 332 | 222 | 71.7 | 77.4 | 214 | 440 | 273 | 174 | 78 | 133 | 285 | 131 | 141 | 152 | 120 | 151 | 124
Cn1c(=O)n(-c2ccc(C(C)(C)C#N)cc2)c2c3cc(-c4cnc5ccccc5c4)ccc3ncc21 + O=C(O)c1ccc2c(c1)nc(Nc1cccc(Cl)c1)c1ccncc12 [CX4945] (first compound 0.004 µM, partner dose 0.4 µM) | 130 | 405 | 199 | 107 | 169 | 77.1 | 108 | 140 | 136 | 107 | 106 | 148 | 56.5 | 36.2 | 62.8 | 102 | 99.2 | 74.1 | 201
Nc1ncn([C@H]2C[C@H](O)[C@@H](CO)O2)c(=O)n1 [decitabine] + C#Cc1cccc(Nc2ncnc3cc(OCCOC)c(OCCOC)cc23)c1 [erlotinib] (first compound 0.1 µM, partner dose 0.8 µM) | 82.1 | 102 | 122 | 98.2 | 66.1 | 110 | 102 | 263 | 95.8 | 49.4 | 149 | 89.3 | 116 | 82.7 | 271 | 134 | 70.4 | 68.9 | 177
CS(=O)(=O)CCNCc1ccc(-c2ccc3ncnc(Nc4ccc(OCc5cccc(F)c5)c(Cl)c4)c3c2)o1 [lapatinib] + Clc1ccc(Nc2nnc(Cc3ccncc3)c3ccccc23)cc1 [vatalanib] (first compound 0.8 µM, partner dose 2 µM) | 138 | 46.7 | 74 | 57.1 | 74.7 | 171 | 196 | 72.9 | 121 | 144 | 116 | 20.3 | 136 | 134 | 125 | 148 | 52.4 | 121 | 68.5
O=C(O)[C@@H]1[O][Sb](=[O])([O][Sb]2(=[O])[O][C@H]([C@H](O)CO)[C@H](O)[C@H](C(=O)O)[O]2)[O][C@H]([C@H](O)CO)[C@@H]1O (stereo partly specified) [stibogluconate] + CNC(=O)c1cc(Oc2ccc(NC(=O)Nc3ccc(Cl)c(C(F)(F)F)c3)cc2)ccn1 [sorafenib] (first compound 2 µM, partner dose 0.4 µM) | 68.2 | 42.6 | 124 | 340 | 71.5 | 110 | 91.4 | 102 | 109 | 75.5 | 128 | 81.8 | 63.4 | 155 | 65.2 | 542 | 89.9 | 31 | 81.1
CN1CCN(c2ccc3nc(-c4c(N)c5c(F)cccc5[nH]c4=O)[nH]c3c2)CC1 [Dovitinib] + CNC(=O)c1cc(Oc2ccc(NC(=O)Nc3ccc(Cl)c(C(F)(F)F)c3)cc2)ccn1 [sorafenib] (first compound 0.1 µM, partner dose 0.4 µM) | 148 | 79.9 | 130 | 119 | 73 | 72.1 | 79.5 | 39.9 | 78.2 | 127 | 46.4 | 97.7 | 51.2 | 109 | 48.4 | 195 | 84.3 | 194 | 125
Nc1ccn([C@@H]2O[C@H](CO)[C@@H](O)C2(F)F)c(=O)n1 [gemcitabine] + OCc1c[nH]c2ccccc12 [Indole-3-carbinol] (first compound 0.0004 µM, partner dose 0.8 µM) | 97.7 | 52.1 | 79.7 | 146 | 81.8 | 35.6 | 208 | 184 | 141 | 34.7 | 131 | 70.3 | 95.7 | 14 | 151 | 64.7 | 61.7 | 152 | 177
